Measurements published in US6455242B1, “Color photographic element containing speed improving compound” (Eastman Kodak Company, priority 1998, dated 2002).

Assay: Multilayer film ML-B, stepped exposure, KODAK FLEXICOLOR (C-41) process
Settings: for Speed of Neutral / Speed of G Only: check ML-B-1
[1] = Layer 9 at 0.082 mmol/m^2 (6.8 mmol/mol silver), dispersed in three times own weight of N,N-dibutyllauramide
[2] = Layer 9 at 0.082 mmol/m^2, dispersed in three times own weight of N,N-dibutyllauramide
[3] = Layer 9 at 0.082 mmol/m^2, dispersed in twice own weight of N,N-dibutyllauramide
[4] = Layer 9 at 0.082 mmol/m^2, added as water solutions

## CCCCCCCCCCCCNc1ncnc2nc[nH]c12 [AA, 6-dodecylaminopurine]
[1]
  Speed of Neutral: 0.13 stops
[2]
  Granularity: 20.3 ×10^3
  Speed of G Only: 0.17 stops

## CCC(Oc1ccc(C(C)(C)CC)cc1C(C)(C)CC)C(=O)Nc1ncnc2[nH]cnc12 (stereo not shown) [AB]
[1]
  Speed of Neutral: 0.23 stops
[2]
  Granularity: 21.4 ×10^3
  Speed of G Only: 0.23 stops

## CCCCCCCCCCCCOCCCCCCOc1ncnc2[nH]cnc12 [AC]
[1]
  Speed of Neutral: 0.27 stops
[2]
  Granularity: 21.5 ×10^3
  Speed of G Only: 0.27 stops

## CCCCCCCCCCCCCCCCOC(=O)CCCSc1ncnc2[nH]cnc12 [AE]
[1]
  Speed of Neutral: 0.27 stops
[2]
  Granularity: 21.3 ×10^3
  Speed of G Only: 0.30 stops

## CCCCCCCCCCCCCCCCOC(=O)CCCCCSc1ncnc2[nH]cnc12 [AF]
[1]
  Speed of Neutral: 0.30 stops
[2]
  Granularity: 21.1 ×10^3
  Speed of G Only: 0.33 stops

## CCCCCCCCC(CCCCCC)COC(=O)CCCSc1ncnc2[nH]cnc12 (stereo not shown) [AH]
[1]
  Speed of Neutral: 0.23 stops
[2]
  Granularity: 18.9 ×10^3
  Speed of G Only: 0.23 stops

## CCCCCCCCCCCCCCCCCCSc1nnc2nc(C)cc(O)n12 [AJ]
[1]
  Speed of Neutral: 0.10 stops
[2]
  Granularity: 19.9 ×10^3
  Speed of G Only: 0.13 stops

## CCCCCCCCCCCCCCCCCCSc1nnc2nc(C(C)(C)C)cc(O)n12 [AK]
[1]
  Speed of Neutral: 0.17 stops
[2]
  Granularity: 17.7 ×10^3
  Speed of G Only: 0.17 stops

## CCCCCCCCCCCCCCC(Sc1nc2nc(C)cc(O)n2n1)C(=O)NCCC (stereo not shown) [AL]
[1]
  Speed of Neutral: 0.16 stops and 0.17 stops
[2]
  Granularity: 18.3 ×10^3 and 18.1 ×10^3
  Speed of G Only: 0.16 stops and 0.20 stops

## CCCCCCCCC(CCCCCC)COC(=O)C(C)Sc1nc2nc(C)cc(O)n2n1 (stereo not shown) [AM]
[1]
  Speed of Neutral: 0.20 stops
[2]
  Granularity: 17.9 ×10^3
  Speed of G Only: 0.23 stops

## CCCCCCCCCCCCCCC(Sc1nc2nc(C)cc(O)n2n1)C(=O)OCC(CC)CCCC (stereo not shown) [AN]
[1]
  Speed of Neutral: 0.23 stops
[2]
  Granularity: 16.9 ×10^3
  Speed of G Only: 0.27 stops

## CCCCCCCCCCCCCCC(Sc1nnc2nc(C)cc(O)n12)C(=O)NC(C)C (stereo not shown) [AS]
[1]
  Speed of Neutral: 0.20 stops
[2]
  Granularity: 17.8 ×10^3
  Speed of G Only: 0.20 stops

## CCC(Oc1ccc(C(C)(C)CC)cc1C(C)(C)CC)C(=O)Nc1ccc2[nH]nnc2c1 (stereo not shown) [BB]
[3]
  Granularity: 16.9 ×10^3
  Speed of G Only: 0.33 stops
  Speed of Neutral: 0.33 stops

## CCC(C)(C)c1ccc(OCCCCOC(=O)c2ccc3[nH]nnc3c2)c(C(C)(C)CC)c1 [BC]
[3]
  Granularity: 15.6 ×10^3
  Speed of G Only: 0.37 stops
  Speed of Neutral: 0.37 stops

## CCCCC(Oc1ccc(C(C)(C)CC)cc1C(C)(C)CC)C(=O)Nc1ccc2[nH]nnc2c1 (stereo not shown) [BD]
[3]
  Granularity: 17.4 ×10^3
  Speed of G Only: 0.40 stops
  Speed of Neutral: 0.40 stops

## CCCCCCCCCCCCCCCc1cccc(OC(CC)C(=O)Nc2ccc3[nH]nnc3c2)c1 (stereo not shown) [BF]
[3]
  Granularity: 15.7 ×10^3
  Speed of G Only: 0.37 stops
  Speed of Neutral: 0.33 stops

## CCCCCCCCCCCCCCCCCCOc1ccc2[nH]nnc2c1 [BG]
[3]
  Granularity: 15.7 ×10^3
  Speed of G Only: 0.40 stops
  Speed of Neutral: 0.40 stops

## CCCCCCCCCCCCCCCc1cccc(OC(CC)C(=O)Nc2cccc(-n3nnnc3S)c2)c1 (stereo not shown) [BH]
[3]
  Granularity: 17.7 ×10^3
  Speed of G Only: 0.10 stops
  Speed of Neutral: 0.07 stops

## CCCCC(Oc1ccc(C(C)(C)CC)cc1C(C)(C)CC)c1nnc(S)o1 (stereo not shown) [BI]
[3]
  Granularity: 19.0 ×10^3
  Speed of G Only: 0.10 stops
  Speed of Neutral: 0.03 stops

## CCCCC(Oc1ccc(C(C)(C)CC)cc1C(C)(C)CC)c1nnc(S)s1 (stereo not shown) [BJ]
[3]
  Granularity: 17.5 ×10^3
  Speed of G Only: 0.10 stops
  Speed of Neutral: 0.07 stops

## CCCCCCCCCCCCCCOc1ccc(-c2nnn[nH]2)cc1 [BK]
[3]
  Granularity: 18.6 ×10^3
  Speed of G Only: 0.10 stops
  Speed of Neutral: 0.10 stops

## CCCCCCCCCCCCCCCCCC(=O)OCc1n[nH]nc1-c1ccccc1 [BM]
[3]
  Granularity: 18.1 ×10^3
  Speed of G Only: 0.23 stops
  Speed of Neutral: 0.23 stops

## CCCCCCCCCCCCCCOc1nccc2[nH]cnc12 [BN]
[1]
  Speed of Neutral: 0.00 stops
[2]
  Granularity: 16.8 ×10^3
  Speed of G Only: 0.17 stops

## Oc1ncnc2[nH]cnc12 [CC-2, reference compound]
[1]
  Speed of Neutral: 0.00 stops
[2]
  Granularity: 20.6 ×10^3
  Speed of G Only: 0.00 stops

## Nc1ncnc2[nH]cnc12 [CC-3, reference compound]
[1]
  Speed of Neutral: −0.10 stops
[2]
  Granularity: 20.0 ×10^3
  Speed of G Only: −0.10 stops

## CC(=O)Nc1ncnc2[nH]cnc12 [CC-4, reference compound]
[1]
  Speed of Neutral: −0.10 stops
[2]
  Granularity: 20.0 ×10^3
  Speed of G Only: −0.10 stops

## Sc1ncnc2[nH]cnc12 [CC-5, reference compound]
[1]
  Speed of Neutral: −1.57 stops
[2]
  Granularity: 25.6 ×10^3
  Speed of G Only: −1.10 stops

## CCCCCCCCCCCCOc1ncnc2[nH]cnc12 [CC-6, reference compound]
[1]
  Speed of Neutral: 0.07 stops
[2]
  Granularity: 24.3 ×10^3
  Speed of G Only: 0.03 stops

## CCCCCCCCCCCCSc1nc2ccccc2[nH]1 [CC-7, reference compound]
[1]
  Speed of Neutral: 0.03 stops
[2]
  Granularity: 17.8 ×10^3
  Speed of G Only: 0.03 stops

## CCCCCCCCCCCCCCCc1ccc2[nH]cnc2c1 [CC-8, reference compound]
[1]
  Speed of Neutral: 0.03 stops
[2]
  Granularity: 19.3 ×10^3
  Speed of G Only: 0.03 stops

## CCCCCCCCCCCCc1ccc2[nH]cnc2c1 [CC-9, reference compound]
[1]
  Speed of Neutral: 0.03 stops
[2]
  Granularity: 18.6 ×10^3
  Speed of G Only: −0.03 stops

## CCC(C)(C)c1ccc(OCCCCNC(=O)c2ccc3[nH]nnc3c2)c(C(C)(C)CC)c1 [CC-10, reference compound]
[1]
  Speed of Neutral: 0.06 stops
[2]
  Granularity: 18.2 ×10^3
  Speed of G Only: 0.03 stops

## CCCCCCCCCCCCCCS(=O)(=O)c1ncnc2[nH]cnc12 [CC-11, reference compound]
[1]
  Speed of Neutral: 0.03 stops
[2]
  Granularity: 22.1 ×10^3
  Speed of G Only: 0.03 stops

## CCCC(Sc1nc2nc(C)cc(O)n2n1)C(=O)OCC (stereo not shown) [CC-12, reference compound]
[1]
  Speed of Neutral: 0.03 stops
[2]
  Granularity: 18.3 ×10^3
  Speed of G Only: 0.10 stops

## Cc1cc(O)n2ncnc2n1 [CC-13, reference compound]
[4]
  Granularity: 17.3 ×10^3
  Speed of G Only: −0.07 stops
  Speed of Neutral: −0.10 stops

## Cc1nc2ncnn2c(O)c1Br [CC-14, reference compound]
[4]
  Granularity: 17.8 ×10^3
  Speed of G Only: 0.00 stops
  Speed of Neutral: 0.00 stops

## CSc1nc2nc(C)cc(O)n2n1 [CC-15, reference compound]
[4]
  Granularity: 17.3 ×10^3
  Speed of G Only: 0.00 stops
  Speed of Neutral: −0.03 stops

## CCCCCCCCc1cc(O)n2ncnc2n1 [CC-16, reference compound]
[1]
  Speed of Neutral: −0.30 stops
[2]
  Granularity: 26.2 ×10^3
  Speed of G Only: −0.23 stops

## CCCCCCCCCc1nc2nc(C)cc(O)n2n1 [CC-17, reference compound]
[1]
  Speed of Neutral: 0.10 stops
[2]
  Granularity: 27.2 ×10^3
  Speed of G Only: 0.10 stops

## CCCCCCCCSc1nc2nc(C)cc(O)n2n1 [CC-18, reference compound]
[1]
  Speed of Neutral: −0.27 stops
[2]
  Speed of G Only: −0.20 stops

## CCC(C)(C)c1ccc(OCC(=O)Nc2ccc3[nH]nnc3c2)c(C(C)(C)CC)c1 [CC-19, reference compound]
[3]
  Granularity: 18.9 ×10^3
  Speed of G Only: −0.10 stops
  Speed of Neutral: 0.03 stops

## CCCCCCCCCCCCOc1ccc2[nH]nnc2c1 [CC-20, reference compound]
[3]
  Granularity: 17.7 ×10^3
  Speed of G Only: 0.06 stops
  Speed of Neutral: 0.03 stops

## CCCCCCCCCCCC(=O)Nc1cccc(-n2nnnc2S)c1 [CC-21, reference compound]
[3]
  Granularity: 17.5 ×10^3
  Speed of G Only: −0.80 stops
  Speed of Neutral: −0.77 stops

## CCCCCCCCCCOc1ccc(-c2nnn[nH]2)cc1 [CC-22, reference compound]
[3]
  Speed of G Only: −0.17 stops
  Speed of Neutral: −0.07 stops

## CCCCCCCCCCCCSc1nnc(S)s1 [CC-23, reference compound]
[3]
  Granularity: 17.5 ×10^3
  Speed of G Only: −0.07 stops
  Speed of Neutral: −0.07 stops

## CCCCCCCCCCCCOc1ccc(-c2nnc(S)o2)cc1 [CC-24, reference compound]
[3]
  Granularity: 17.9 ×10^3
  Speed of G Only: 0.00 stops
  Speed of Neutral: 0.03 stops

## CCCCCCCCCCCCCCCCCCOc1ccc(-c2nnn[nH]2)cc1 [CC-25, reference compound]
[3]
  Granularity: 28.1 ×10^3
  Speed of G Only: −0.03 stops
  Speed of Neutral: 0.00 stops

## CCCCCC(=O)OCc1n[nH]nc1-c1ccccc1 [CC-26, reference compound]
[3]
  Granularity: 17.4 ×10^3
  Speed of G Only: −0.60 stops
  Speed of Neutral: −0.57 stops

## CCC(Oc1ccc(C(C)(C)CC)cc1C(C)(C)CC)C(=O)Nc1ccc2[nH]cnc2c1 (stereo not shown) [CC-27, reference compound]
[3]
  Granularity: 20.9 ×10^3
  Speed of G Only: 0.03 stops
  Speed of Neutral: −0.10 stops

## CCCCCCCCCC(CCCC)Oc1ncnc2[nH]cnc12 (stereo not shown) [C]
[1]
  Speed of Neutral: 0.37 stops
[2]
  Granularity: 20.8 ×10^3
  Speed of G Only: 0.37 stops

## CCCCCCCCCCCCCCCCSc1ncnc2[nH]cnc12 [J]
[1]
  Speed of Neutral: 0.37 stops
[2]
  Granularity: 20.9 ×10^3
  Speed of G Only: 0.37 stops

Several values for one entry are separate records, joined by “and”; a condition that tells them apart may be missing. Equal values may be shown once.
